Patent US20120276102A1
These are yes or no findings as the source states them, for the method shown. Some results given as binding are weak or reduced against the parent protein; the word gives no strength.

Protein sequences, listed by entry. Tags and fused reporters are not part of them. Lines headed by an entry give the natural chain unless they say otherwise; changes in a name come on top. Chains listed by the source or under a name are the forms on record and can include a tag or linker.
cynomolgus monkey IL-21R expressed on cells (G7Q0S8, form named): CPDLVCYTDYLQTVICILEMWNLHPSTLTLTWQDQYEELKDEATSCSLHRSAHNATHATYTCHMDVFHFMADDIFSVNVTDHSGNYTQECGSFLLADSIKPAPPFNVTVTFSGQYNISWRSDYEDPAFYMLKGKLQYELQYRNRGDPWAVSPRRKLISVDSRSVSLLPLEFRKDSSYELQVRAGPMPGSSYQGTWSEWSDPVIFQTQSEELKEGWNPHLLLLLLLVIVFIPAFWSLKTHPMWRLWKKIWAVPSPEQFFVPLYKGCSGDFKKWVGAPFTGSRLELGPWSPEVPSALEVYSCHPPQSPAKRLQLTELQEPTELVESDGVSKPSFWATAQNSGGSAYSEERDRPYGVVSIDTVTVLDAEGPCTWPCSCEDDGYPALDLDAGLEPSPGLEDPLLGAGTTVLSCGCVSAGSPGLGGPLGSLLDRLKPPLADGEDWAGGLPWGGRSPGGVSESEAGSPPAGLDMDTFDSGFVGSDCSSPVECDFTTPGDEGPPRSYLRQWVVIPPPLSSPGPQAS
UniProt Q9HBE5: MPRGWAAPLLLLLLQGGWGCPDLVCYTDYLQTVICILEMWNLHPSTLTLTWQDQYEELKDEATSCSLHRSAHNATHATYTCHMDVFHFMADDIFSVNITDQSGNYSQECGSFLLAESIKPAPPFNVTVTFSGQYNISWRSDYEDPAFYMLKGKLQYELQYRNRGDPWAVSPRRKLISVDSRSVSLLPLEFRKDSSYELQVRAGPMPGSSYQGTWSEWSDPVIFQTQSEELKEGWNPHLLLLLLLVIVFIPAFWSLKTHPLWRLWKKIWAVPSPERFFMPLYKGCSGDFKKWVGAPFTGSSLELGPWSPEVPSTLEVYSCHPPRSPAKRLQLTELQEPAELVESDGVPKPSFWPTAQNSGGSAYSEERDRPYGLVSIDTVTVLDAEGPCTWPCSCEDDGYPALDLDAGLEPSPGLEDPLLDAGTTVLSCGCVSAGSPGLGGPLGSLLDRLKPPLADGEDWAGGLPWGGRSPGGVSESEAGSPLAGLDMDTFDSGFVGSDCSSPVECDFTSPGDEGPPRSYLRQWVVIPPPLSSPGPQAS
UniProt Q9JHX3: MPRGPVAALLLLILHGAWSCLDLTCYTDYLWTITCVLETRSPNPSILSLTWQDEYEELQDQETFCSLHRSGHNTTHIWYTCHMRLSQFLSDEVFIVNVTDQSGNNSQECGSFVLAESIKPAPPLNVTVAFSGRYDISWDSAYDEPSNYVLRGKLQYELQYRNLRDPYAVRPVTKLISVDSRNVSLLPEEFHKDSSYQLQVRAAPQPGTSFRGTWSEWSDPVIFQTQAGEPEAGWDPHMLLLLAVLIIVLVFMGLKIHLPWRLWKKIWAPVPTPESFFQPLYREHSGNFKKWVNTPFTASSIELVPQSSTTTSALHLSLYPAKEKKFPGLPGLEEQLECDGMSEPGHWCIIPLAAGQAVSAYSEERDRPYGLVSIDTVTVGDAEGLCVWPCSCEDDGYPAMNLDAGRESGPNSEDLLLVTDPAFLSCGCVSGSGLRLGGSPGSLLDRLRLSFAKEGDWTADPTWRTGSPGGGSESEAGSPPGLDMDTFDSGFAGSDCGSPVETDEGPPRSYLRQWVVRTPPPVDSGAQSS

What was measured:
[1] = molecular target: cynomolgus monkey IL-21R expressed on cells (cynomolgus monkey) (UniProt G7Q0S8); test: cell ELISA, CHO cells
[2] = molecular target: human IL-21R expressed on cells (human) (UniProt Q9HBE5); test: cell ELISA, CHO cells
[3] = molecular target: murine IL-21R extracellular domain His-Flag fusion protein (murine) (UniProt Q9JHX3); test: SPR, Ab captured, 50 nM analyte
[4] = molecular target: human IL-21R expressed on cells (human) (UniProt Q9HBE5); test: cell-based ELISA on CHO cells transiently expressing human IL-21R; HRP anti-human IgG, A450
[5] = molecular target: cynomolgus monkey IL-21R expressed on cells (cynomolgus monkey) (UniProt G7Q0S8); test: cell-based ELISA on CHO cells transiently expressing cynomolgus monkey IL-21R; HRP anti-human IgG, A450

Measured: binding

B1: AbL (antibody, IgG1, V domains shown)
VH: QVQLQESGPGLVKPSETLSLTCAVSGYSISSGYYWGWIRQPPGKGLEWIGSISHTGNTYYNPPLKSRVTISVDTSKNQFSLKLSSVTAADTAVYYCARFMGFGRPEYWGQGTLVTVSS
VL: SSELTQDPAVSVALGQTVRITCQGDSLRTYYASWYQQKPGQAPVLVIYGKHKRPSGIPDRFSGSSSGNTASLTITGAQAEDEADYYCVTRNRYGNPHVLFGGGTQLTVL
binds: [1] | [2] | [3] | [4] | [5]

B2: AbK (antibody, IgG1, V domains shown)
VH: QVQLQESGPGLVKPSETLSLTCAVSGYSISSGYYWGWIRQPPGKGLEWIGSISHTGNTYYNPPLKSRVTISVDTSKNQFSLKLSSVTAADTAVYYCARFMGFGRPEYWGQGTLVTVSS
VL: SSELTQDPAVSVALGQTVRITCQGDSLRTYYASWYQQKPGQAPVLVIYGKHKRPSGIPDRFSGSSSGNTASLTITGAQAEDEADYYCVSRAVVGNPHVLFGGGTQLTVL
binds: [1] | [2] | [3] | [4] | [5]

B3: AbJ (antibody, IgG1, V domains shown)
VH: QVQLQESGPGLVKPSETLSLTCAVSGYSISSGYYWGWIRQPPGKGLEWIGSISHTGNTYYNPPLKSRVTISVDTSKNQFSLKLSSVTAADTAVYYCARFMGFGRPEYWGQGTLVTVSS
VL: SSELTQDPAVSVALGQTVRITCQGDSLRTYYASWYQQKPGQAPVLVIYGKHKRPSGIPDRFSGSSSGNTASLTITGAQAEDEADYYCNSRDSSGNPHVLFGGGTQLTVL
binds: [1] | [2] | [3] | [4] | [5]

B4: AbC (antibody, IgG1, V domains shown)
VH: QVQLQESGPGLVKPSETLSLTCAVSGYSISSGYYWGWIRQPPGKGLEWIGSISHTGNTYYNPPLKSRVTISVDTSKNQFSLKLSSVTAADTAVYYCARGGGISRPEYWGQGTLVTVSS
VL: SSELTQDPAVSVALGQTVRITCQGDSLRTYYASWYQQKPGQAPVLVIYGKHKRPSGIPDRFSGSSSGNTASLTITGAQAEDEADYYCSSRSRHGNPHVLFGGGTQLTVL
binds: [1] | [2] | [3] | [4] | [5]

B5: AbD (antibody, IgG1, V domains shown)
VH: QVQLQESGPGLVKPSETLSLTCAVSGYSISSGYYWGWIRQPPGKGLEWIGSISHTGNTYYNPPLKSRVTISVDTSKNQFSLKLSSVTAADTAVYYCARGGGISRPEYWGQGTLVTVSS
VL: SSELTQDPAVSVALGQTVRITCQGDSLRTYYASWYQQKPGQAPVLVIYGKHKRPSGIPDRFSGSSSGNTASLTITGAQAEDEADYYCVTRNRYGNPHVLFGGGTQLTVL
binds: [1] | [2] | [3] | [4] | [5]

B6: AbE (antibody, IgG1, V domains shown)
VH: QVQLQESGPGLVKPSETLSLTCAVSGYSISSGYYWGWIRQPPGKGLEWIGSISHTGNTYYNPPLKSRVTISVDTSKNQFSLKLSSVTAADTAVYYCARGGGISRPEYWGQGTLVTVSS
VL: SSELTQDPAVSVALGQTVRITCQGDSLRTYYASWYQQKPGQAPVLVIYGKHKRPSGIPDRFSGSSSGNTASLTITGAQAEDEADYYCMARSRKGNPHVLFGGGTQLTVL
binds: [1] | [2] | [3] | [4] | [5]

B7: AbF (antibody, IgG1, V domains shown)
VH: QVQLQESGPGLVKPSETLSLTCAVSGYSISSGYYWGWIRQPPGKGLEWIGSISHTGNTYYNPPLKSRVTISVDTSKNQFSLKLSSVTAADTAVYYCARGGGISRPEYWGQGTLVTVSS
VL: SSELTQDPAVSVALGQTVRITCQGDSLRTYYASWYQQKPGQAPVLVIYGKHKRPSGIPDRFSGSSSGNTASLTITGAQAEDEADYYCSTRSRKGNPHVLFGGGTQLTVL
binds: [1] | [2] | [3] | [4] | [5]

B8: AbG (antibody, IgG1, V domains shown)
VH: QVQLQESGPGLVKPSETLSLTCAVSGYSISSGYYWGWIRQPPGKGLEWIGSISHTGNTYYNPPLKSRVTISVDTSKNQFSLKLSSVTAADTAVYYCARGGGISRPEYWGQGTLVTVSS
VL: SSELTQDPAVSVALGQTVRITCQGDSLRTYYASWYQQKPGQAPVLVIYGKHKRPSGIPDRFSGSSSGNTASLTITGAQAEDEADYYCVTRSVKGNPHVLFGGGTQLTVL
binds: [1] | [2] | [3] | [4] | [5]

B9: AbH (antibody, IgG1, V domains shown)
VH: QVQLQESGPGLVKPSETLSLTCAVSGYSISSGYYWGWIRQPPGKGLEWIGSISHTGNTYYNPPLKSRVTISVDTSKNQFSLKLSSVTAADTAVYYCARGGGISRPEYWGQGTLVTVSS
VL: SSELTQDPAVSVALGQTVRITCQGDSLRTYYASWYQQKPGQAPVLVIYGKHKRPSGIPDRFSGSSSGNTASLTITGAQAEDEADYYCVARAVRGNPHVLFGGGTQLTVL
binds: [1] | [2] | [3] | [4] | [5]

B10: AbA (antibody, V domains shown)
VH: QVQLQESGPGLVKPSETLSLTCAVSGYSISSGYYWGWIRQPPGKGLEWIGSISHTGNTYYNPPLKSRVTISVDTSKNQFSLKLSSVTAADTAVYYCARGGGISRPEYWGQGTLVTVSS
VL: SSELTQDPAVSVALGQTVRITCQGDSLRTYYASWYQQKPGQAPVLVIYGKHKRPSGIPDRFSGSSSGNTASLTITGAQAEDEADYYCVARSVVGNPHVLFGGGTQLTVL
binds: [1] | [2] | [3] | [4] | [5]

B11: AbI (antibody, IgG1, V domains shown)
VH: QVQLQESGPGLVKPSETLSLTCAVSGYSISSGYYWGWIRQPPGKGLEWIGSISHTGNTYYNPPLKSRVTISVDTSKNQFSLKLSSVTAADTAVYYCARGGGISRPEYWGQGTLVTVSS
VL: SSELTQDPAVSVALGQTVRITCQGDSLRTYYASWYQQKPGQAPVLVIYGKHKRPSGIPDRFSGSSSGNTASLTITGAQAEDEADYYCIARSNKGNPHVLFGGGTQLTVL
binds: [1] | [2] | [3] | [4] | [5]

B12: AbB (antibody, IgG1, V domains shown)
VH: QVQLQESGPGLVKPSETLSLTCAVSGYSISSGYYWGWIRQPPGKGLEWIGSISHTGNTYYNPPLKSRVTISVDTSKNQFSLKLSSVTAADTAVYYCARGGGISRPEYWGQGTLVTVSS
VL: SSELTQDPAVSVALGQTVRITCQGDSLRTYYASWYQQKPGQAPVLVIYGKHKRPSGIPDRFSGSSSGNTASLTITGAQAEDEADYYCVSRAVVGNPHVLFGGGTQLTVL
binds: [1] | [2] | [3] | [4] | [5]
